Results reported in PubChem BioAssay AID743255 (National Center for Advancing Translational Sciences (NCATS), 2014).
Out of some 390,000 compounds screened, about 910 (0.23%) were called active. This list was built around the results that the source calls inconclusive (neither active nor inactive); the mix of calls is not that of the screen. Calls come from the whole dose curve; as a rule, active = well fitted inhibition curve with a large enough effect; inconclusive = small, poorly fitted or top-dose-only effect; inactive = no such curve, though single readings can be large or run the other way. Where the call is inconclusive, the potency comes from a doubtful curve fit.

Sequences of proteins named here, by UniProt entry; tags and fusion partners are left off. A change or cut given only in a name is not applied to a line headed by its entry.
UniProt O94782: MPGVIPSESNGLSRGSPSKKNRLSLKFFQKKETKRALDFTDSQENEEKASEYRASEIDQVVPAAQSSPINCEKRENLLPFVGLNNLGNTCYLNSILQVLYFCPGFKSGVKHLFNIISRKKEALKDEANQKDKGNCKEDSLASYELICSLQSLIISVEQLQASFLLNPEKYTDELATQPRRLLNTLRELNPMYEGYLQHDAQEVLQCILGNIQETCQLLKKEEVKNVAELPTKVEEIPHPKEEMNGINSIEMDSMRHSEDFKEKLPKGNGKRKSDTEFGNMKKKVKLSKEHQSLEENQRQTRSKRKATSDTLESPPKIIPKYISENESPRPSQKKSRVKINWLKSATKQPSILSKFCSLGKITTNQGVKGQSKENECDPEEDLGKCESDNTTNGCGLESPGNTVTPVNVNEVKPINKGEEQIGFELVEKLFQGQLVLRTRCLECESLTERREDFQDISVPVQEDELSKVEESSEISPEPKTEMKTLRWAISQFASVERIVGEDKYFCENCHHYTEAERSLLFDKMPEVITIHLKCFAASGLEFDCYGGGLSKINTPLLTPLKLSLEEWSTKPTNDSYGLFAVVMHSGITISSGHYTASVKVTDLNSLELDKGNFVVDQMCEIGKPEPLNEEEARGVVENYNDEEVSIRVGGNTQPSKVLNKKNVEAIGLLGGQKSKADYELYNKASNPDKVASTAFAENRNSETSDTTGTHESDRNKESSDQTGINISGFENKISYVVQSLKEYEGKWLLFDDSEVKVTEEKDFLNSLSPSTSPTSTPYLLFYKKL

These compounds were tested against Ubiquitin carboxyl-terminal hydrolase 1 (Homo sapiens) (UniProt O94782) (assay: Inhibitors of USP1/UAF1: Primary Screen). Settings: recombinant USP1/UAF1, Ub-Rhodamine cleavage fluorescence; series mostly up to 57.1 µM.
Procedure, shortened: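 USP1/UAF1 complex at 1 nM was preincubated with compound for 15 min at room temperature, then Ub-Rho substrate (150nM final) was added. Fluorescence (480/540 nm) was read kinetically, 6 reads every 60 seconds.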
Note: nearly all actives have a fitted effect of over 60% in size.
Potency is the fitted concentration of half-maximal effect.

Potency, inconclusive:
Cc1cc(C)cc(Nc2sc(C(=O)c3ccccc3)c(N)c2S(=O)(=O)c2ccccc2)c1 5.01 µM [inhibitor, partial curve]
COc1ccc(C(CNc2ccc(C(F)(F)F)cn2)N(C)C)cc1OC (stereo not drawn) 8.91 µM [inhibitor, partial curve, poor fit]
Cc1ccc(NC(=O)COC(=O)CNC(=O)C2CCCCC2)cc1S(=O)(=O)N(C)C 7.08 µM [inhibitor, single point]
COc1cccc(N2CC(NC(=O)c3ccc4c(c3)OCO4)CC2=O)c1 (stereo not drawn) 14.1 µM [inhibitor, partial curve]
CCOc1cc(CNc2ncnc3nc[nH]c23)ccc1OC 0.501 µM [inhibitor, full curve, poor fit]
Cc1ccc(C(=O)N2c3ccccc3N(Cc3ccccc3)C(=O)C2(C)C)cc1 35.5 µM [inhibitor, partial curve]
O=C(COc1ccc(F)cc1)Nc1ccccc1C(=O)OCc1cc(=O)n2nc(C3CC3)sc2n1 6.31 µM [inhibitor, single point]
Cc1ccc(NC(=O)Cn2nc([N+](=O)[O-])c(Br)c2C)cc1C 0.562 µM [inhibitor, full curve, poor fit]
O=C(Cn1ccc2cc(S(=O)(=O)N3CCCCC3)ccc21)NCCc1ccc(Cl)cc1 1.12 µM [inhibitor, full curve, poor fit]
COc1c(/C=C2\SC(=Nc3ccccc3Cl)NC2=O)cccc1[N+](=O)[O-] 44.7 µM [inhibitor, partial curve]
Cc1ccc(NC(=O)C2CCN(S(=O)(=O)c3ccc(Cl)c(C(F)(F)F)c3)CC2)nc1 31.6 µM [inhibitor, partial curve]
CC1=NOC(=O)/C1=C\c1ccc(-c2ccccc2Br)o1 39.8 µM [inhibitor, partial curve]
COc1ccc(CC(=O)NCc2ccccc2F)cc1S(=O)(=O)N1CCOCC1 35.5 µM [inhibitor, partial curve]
Cc1cc(C)cc(NC(=O)CSc2oc(-c3cccs3)nc2S(=O)(=O)c2ccccc2)c1 1.12 µM [inhibitor, full curve, poor fit]
COc1cccc(-c2coc3c(C)c4oc(=O)c(CC(=O)O)c(C)c4cc23)c1 44.7 µM [inhibitor, partial curve, poor fit]
Cc1ccc(NC(=O)CN2C(=O)NC(Cc3ccccc3)C2=O)c(Br)c1 (stereo not drawn) 35.5 µM [inhibitor, partial curve]
CC(=O)c1c(C)[nH]c(C(=O)Nc2cccc(C#N)c2)c1C 15.8 µM [inhibitor, partial curve, poor fit]
CCN1CCN(C2=C(NS(=O)(=O)c3ccccc3)C(=O)c3ccccc3C2=O)CC1 39.8 µM [inhibitor, partial curve]
COC(=O)CCCC1=CC2=CC(=O)C(C)(OC(=O)CCc3ccccc3)C(=O)C2=CO1 (stereo not drawn) 31.6 µM [inhibitor, partial curve]
CC1=CC(C)(C(Cl)(Cl)Cl)C(C)=CC1=NO (stereo not drawn) 3.55 µM [inhibitor, partial curve]
COc1ccc(/C=C2\Oc3cc(OCC(=O)N4CC(O)C[C@H]4C(=O)O)ccc3C2=O)cc1OC (stereo partly drawn) 6.31 µM [inhibitor, full curve]
COc1ccccc1CCNC(=O)CCc1c(C)c2cc3c(C)coc3cc2oc1=O 7.94 µM [inhibitor, partial curve]
Cc1ccc(NC(=O)c2ccc(OCC3CCCO3)cc2)nc1 (stereo not drawn) 0.398 µM [inhibitor, full curve, poor fit]
COc1ccc(OC)c(CCNC(=O)c2ccc3[nH]c(C)c(C)c3c2)c1 31.6 µM [inhibitor, partial curve]
O=C1CC2CCCN2C=C1I (stereo not drawn) 39.8 µM [inhibitor, partial curve, poor fit]
CCOc1ccc2ccccc2c1CNCCCN1CCOCC1 0.251 µM [inhibitor, full curve, poor fit]
CCOc1ccc(C(=O)Nc2ccncc2)cc1 39.8 µM [inhibitor, single point]
Cc1ccc(NC(=O)Cn2c(=O)c(C(F)(F)F)nc3ccccc32)c(C)c1 50.1 µM [inhibitor, partial curve]
CS(=O)(=O)N1CCc2cc(S(=O)(=O)Nc3ccc4oc5c(c4c3)CCCC5)ccc21 4.47 µM [inhibitor, full curve]
Cc1ccc(C2CC(=O)C=C(O)C2)cc1 (stereo not drawn) 14.1 µM [inhibitor, partial curve, poor fit]
COC(=O)c1sc2cc(=O)n(-c3cccc(C(F)(F)F)c3)nc2c1O 28.2 µM [inhibitor, partial curve]
CC(=O)OCC(=O)[C@@]1(O)CC[C@H]2[C@@H]3CCC4=CC(=O)C=C[C@]4(C)[C@H]3[C@@H](O)C[C@@]21C 14.1 µM [inhibitor, partial curve, poor fit]
Cc1c(N=Cc2c(O)n(C)c(=O)c3ccccc23)c(=O)n(-c2ccccc2)n1C 31.6 µM [inhibitor, partial curve]
COc1cc(CCC(=O)NCc2ccc3c(c2)CCN3C(=O)c2cccc(C)c2)cc(OC)c1OC 0.251 µM [inhibitor, full curve]
CCCCCCCCCCCCN1[C@@H](CC(=O)O)c2cc(F)ccc2S1(=O)=O 25.1 µM [inhibitor, single point]
C[C@H](CO)N1C[C@H](C)[C@@H](CN(C)CC2CCCCC2)Oc2c(NS(=O)(=O)c3ccc(F)cc3)cccc2C1=O 44.7 µM [inhibitor, partial curve]
CCCSc1nc2sc3c(c2c(=O)[nH]1)CCN(Cc1ccccc1)C3 31.6 µM [inhibitor, partial curve]
CN(Cc1ccccc1)C(=O)Cn1ncc2c3ccccc3n(Cc3cccc(Cl)c3)c2c1=O 39.8 µM [inhibitor, partial curve, poor fit]
COC(=O)C1=C(C)N(Cc2ccccc2)C(=S)N[C@H]1c1ccc(Br)cc1 0.251 µM [inhibitor, full curve, poor fit]
COc1ccc(C2CCCN2C(=O)Nc2ccc(C)c(C)c2)cc1OC (stereo not drawn) 35.5 µM [inhibitor, single point]
Cc1ccc(NCc2cccn2-c2nnc(N3CCC(C(=O)NCCc4ccccc4)CC3)s2)cc1 15.8 µM [inhibitor, partial curve]
COc1cccc(CNC(=O)N2CCC(CN3CCC(C)CC3)CC2)c1 0.355 µM [inhibitor, full curve]
COc1ccc(-c2c3c(nc4sc(C(=O)Nc5ccc(Cl)cc5)c(N)c24)CC(C)(C)CC3=O)cc1 14.1 µM [inhibitor, partial curve]

Among those listed so far, these have a nitro group on carbon:
Potency, inconclusive:
Cc1ccc(NC(=O)Cn2nc([N+](=O)[O-])c(Br)c2C)cc1C 0.562 µM [inhibitor, full curve, poor fit]
COc1c(/C=C2\SC(=Nc3ccccc3Cl)NC2=O)cccc1[N+](=O)[O-] 44.7 µM [inhibitor, partial curve]

Next part.

Potency, active:
C=CCn1c(NS(=O)(=O)c2ccccc2)c(S(=O)(=O)c2ccc(C)cc2)c2nc3ccccc3nc21 28.2 µM

Potency, inactive:
CCC1(C)Cc2c(C#N)c(N)n(N)c(=S)c2CO1 (stereo not drawn)
CC(C)(C)CC(C)(C)c1ccc(OCCOCC[N+](C)(C)Cc2ccccc2)cc1
Cc1nccc(-c2cccc(NC(=O)Nc3ccc(Cl)cc3)c2)n1
COC(=O)[C@]1(Cc2ccccc2)N[C@H](CN(C)C(=O)Nc2ccccc2)[C@@H]2C(=O)N(Cc3ccccc3)C(=O)[C@@H]21
CCCCOc1ccc(C(=O)CCN2CCCCC2)cc1
COc1ccccc1-c1nnc(SCC(=O)NC2CCCCC2)o1
CCOC(=O)c1cc(S(=O)(=O)N2CCN(c3cc(C)ccc3C)CC2)[nH]n1
Cc1onc(-c2c(F)cccc2Cl)c1C(=O)N1CCCc2ccccc21
N#C[C@@H]1N(Cc2ccccc2)C(=O)[C@H]2CC3C=CC21O3 (stereo partly drawn)
CCOc1ccccc1CNC(=O)c1[nH]c2ccccc2c1Sc1ccccc1
CCc1cc2c(=O)c(-c3cnn(-c4ccccc4)c3)coc2c(CN2CCOCC2)c1O
Cc1ccc2c(c1)N(Cc1ccncc1)C(=O)C(C)O2 (stereo not drawn)
O=C(CNC(=O)Cc1ccccc1)NCc1cccc(C(F)(F)F)c1
Cc1cccc(NC(=O)CN2CCc3cc4c(cc3C2C)OCCCO4)c1 (stereo not drawn)
Cn1c2c(c(=O)n(C)c1=O)C1(C(=O)Nc3ccccc31)C(C#N)=C(N)O2 (stereo not drawn)
CCOc1cc(S(=O)(=O)N(CC)CC)ccc1Cl
COc1ccc(Nc2ccc(Nc3ccc(OC)cc3)nn2)cc1
Cc1cc(NC2CCCCC2)nc(N2CCOCC2)n1
CCOc1ccc(/C=C2/SC(=S)N(C(C(=O)O)c3ccccc3)C2=O)cc1OCC (stereo not drawn)
COc1cccc(-c2ccc(C#N)c(OC(=O)c3ccc(Cl)cc3)n2)c1
CCOCCCNC(=O)NC(=O)CN1CCN(S(=O)(=O)c2ccc3c(c2)OCCO3)CC1
Nc1nc(SCC(=O)Nc2ccc([N+](=O)[O-])cc2)n[nH]1
CCOc1cc(N2CCOCC2)c(OCC)cc1NC(=O)CSc1n[nH]c(N)n1
CCOc1ccc(-c2csc(N)c2C(=O)OC)cc1
